The full ranking holds about 33,000 sequences; the median of “E-score (-0.5 to 0.5)” is about -0.0034, and the highest 2% start at about 0.25. The list shows a part of the results.
Target: T1, Yap3 (UniProt P38749)
T1 sequence: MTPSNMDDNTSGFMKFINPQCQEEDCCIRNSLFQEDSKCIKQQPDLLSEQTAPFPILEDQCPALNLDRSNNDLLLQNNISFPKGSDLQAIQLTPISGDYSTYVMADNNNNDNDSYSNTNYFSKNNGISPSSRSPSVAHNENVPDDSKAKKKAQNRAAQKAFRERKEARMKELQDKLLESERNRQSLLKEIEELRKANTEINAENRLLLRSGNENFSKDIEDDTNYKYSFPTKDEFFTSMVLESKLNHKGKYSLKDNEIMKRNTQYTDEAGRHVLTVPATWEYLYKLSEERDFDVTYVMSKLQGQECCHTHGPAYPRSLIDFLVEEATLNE
Assay: PBM E-score (8-mer binding enrichment) (E-score (-0.5 to 0.5)); higher = stronger / more preferred TF binding
Conditions: protein concentration: 100 nM; construct: GST-full length
How it was run: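 Masliner-normalised scans of fluorescent anti-GST signal were the basis for scoring. That signal came from GST-tagged yeast transcription factors applied at about 100-200 nM to double-stranded universal all-10-mer Agilent arrays on fresh or once-stripped slides. Each ungapped eight-base word, pooled with its reverse complement, received an E-score from the Universal PBM Analysis Suite.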

Compared with ATACGTCA, AAACTTGC is lower in “PBM E-score” value: 0.0839 for the first, 0.0571 for the second.

Going from ATGTTCTA to ACCTCCCA, the “PBM E-score” value falls from 0.11 to -0.215.

Compared with AGCGGTCG, AAAGGTGT is higher in “PBM E-score” value: -0.334 for the first, -0.1 for the second.

Going from CAGGACTC to AATTGACT, the “PBM E-score” value rises from -0.189 to 0.162.

First: CCCCAGAG
Second: ACCCACTC
The “PBM E-score” value of the first is lower: -0.379 for the first, -0.167 for the second.

Compared with AAGGCATT, CCTTATTA is higher in “PBM E-score” value: -0.147 for the first, 0.33 for the second.

First: CGTGTCAC
Second: GACGACGC
The “PBM E-score” value of the first is higher: -0.0465 for the first, -0.186 for the second.

First: ATCGGCCA
Second: ACCAGCCA
The “PBM E-score” value of the first is higher: -0.142 for the first, -0.203 for the second.

Going from CACGTACC to CCGTCGGA, the “PBM E-score” value falls from 0.0369 to -0.0293.

Going from GCACTAGC to CCGCCCTC, the “PBM E-score” value falls from -0.087 to -0.188.

Going from GACCAATA to AGTGCCAT, the “PBM E-score” value falls from 0.142 to -0.101.

Going from GGCTGCTA to CTAGCTGC, the “PBM E-score” value falls from -0.15 to -0.275.

Going from ACCATGCT to CAAGTTTC, the “PBM E-score” value rises from 0.0204 to 0.0467.

First: GACTGACC
Second: ACCCACAA
The “PBM E-score” value of the first is lower: -0.291 for the first, 0.21 for the second.

First: TCCATTCA
Second: CAACTCGG
The “PBM E-score” value of the first is higher: 0.105 for the first, 0.00157 for the second.

Going from AGAGCAGC to TAAAATGA, the “PBM E-score” value rises from -0.166 to 0.23.

Going from CCAGTGGC to CTATTACC, the “PBM E-score” value rises from -0.168 to -0.0641.

Going from ACGGGTAC to GGGCTGAC, the “PBM E-score” value falls from -0.0155 to -0.0608.

Going from AAGTAGAG to AGCTTCTA, the “PBM E-score” value falls from -0.0212 to -0.1.

Going from AATAAGTG to ACACATCT, the “PBM E-score” value falls from 0.164 to 0.00363.

Going from CCCACTAA to AAGGTCGG, the “PBM E-score” value falls from 0.0778 to -0.12.

First: ATGACCCC
Second: TACCAGAA
The “PBM E-score” value of the first is lower: -0.116 for the first, 0.168 for the second.

First: AGAAATGA
Second: ACCGACTC
The “PBM E-score” value of the first is higher: 0.0784 for the first, 0.0227 for the second.

Going from CGTTCGAC to ATTCAATG, the “PBM E-score” value rises from -0.105 to 0.123.

Going from AAATGGCT to AAGGTTAC, the “PBM E-score” value falls from 0.102 to 0.0766.

Compared with CTTGTACC, GCTTTCCC is lower in “PBM E-score” value: 0.0474 for the first, -0.175 for the second.

Compared with CGGGTGTA, TACAGCGA is higher in “PBM E-score” value: -0.0717 for the first, -0.0354 for the second.

Compared with TGCATGCA, AGCTCGTA is lower in “PBM E-score” value: 0.0727 for the first, 0.00077 for the second.

Compared with ATCGTCTC, ACTACTAC is higher in “PBM E-score” value: 0.0144 for the first, 0.0925 for the second.

First: CCCTAGCC
Second: CTTTAGGC
The “PBM E-score” value of the first is higher: -0.156 for the first, -0.187 for the second.

Going from ACGTACAA to CGTGGCAC, the “PBM E-score” value falls from -0.0101 to -0.201.

First: CCCAGCTC
Second: GAATCCTC
The “PBM E-score” value of the first is higher: -0.117 for the first, -0.231 for the second.

Going from CAGAGTCC to ATGGGAGG, the “PBM E-score” value falls from -0.0676 to -0.0823.

Compared with ATGACGCA, CTCAACGA is lower in “PBM E-score” value: 0.242 for the first, -0.116 for the second.

Compared with GCCCGGCA, ACTACATG is higher in “PBM E-score” value: -0.236 for the first, 0.169 for the second.

Compared with ATTTCATA, CGCGGCAA is lower in “PBM E-score” value: 0.239 for the first, 0.0359 for the second.

Going from GTACTTGA to CCTCGTAG, the “PBM E-score” value rises from -0.0479 to -0.00114.

Going from ACAAAGAG to CAGTCGGC, the “PBM E-score” value falls from -0.0685 to -0.142.

Compared with CGGATACG, ATCTACGG is higher in “PBM E-score” value: -0.0544 for the first, 0.0515 for the second.

Going from GTCAGGCA to AGCTCACT, the “PBM E-score” value falls from 0.00699 to -0.136.

First: CCAGCCAA
Second: CGTGTTGA
The “PBM E-score” value of the first is lower: -0.108 for the first, 0.0539 for the second.

Compared with CTTAACGA, AGCTATCG is lower in “PBM E-score” value: 0.0474 for the first, -0.116 for the second.

First: AGTTCGTG
Second: CGTTGCTA
The “PBM E-score” value of the first is lower: -0.0413 for the first, 0.0356 for the second.

First: TCAATGAA
Second: AGACATAG
The “PBM E-score” value of the first is higher: 0.152 for the first, 0.106 for the second.

First: ATTGCGCC
Second: AGCGGCTA
The “PBM E-score” value of the first is lower: -0.0487 for the first, 0.00707 for the second.

Compared with CAGTCAAG, GCACCTAC is lower in “PBM E-score” value: 0.00536 for the first, -0.232 for the second.

First: TAGACCAA
Second: GGATCCCA
The “PBM E-score” value of the first is higher: 0.111 for the first, -0.17 for the second.

Going from CTATGTGA to CGAACATA, the “PBM E-score” value rises from 0.0318 to 0.185.

Going from AGAACACA to AGGTTAGC, the “PBM E-score” value falls from 0.0259 to -0.136.

First: AAAAAATC
Second: CAGTGATG
The “PBM E-score” value of the first is higher: 0.205 for the first, 0.0336 for the second.

Going from ACCTTCTC to ACCTGCCG, the “PBM E-score” value falls from 0.106 to -0.132.

Compared with CCGCTGAG, GGGGGGAC is lower in “PBM E-score” value: -0.0958 for the first, -0.471 for the second.

Compared with ACTTGGAC, AGTTGCCC is lower in “PBM E-score” value: 0.0823 for the first, -0.089 for the second.

Compared with ACATTGAT, AGCCCACC is lower in “PBM E-score” value: 0.164 for the first, -0.25 for the second.

Going from GGGAAAAA to ATCTGTGC, the “PBM E-score” value falls from 0.215 to -0.106.

Compared with ACAGCGCG, CGAGGAGA is lower in “PBM E-score” value: 0.0329 for the first, -0.133 for the second.

First: AAGTCAGT
Second: AGTAGATA
The “PBM E-score” value of the first is lower: 0.103 for the first, 0.273 for the second.

Going from AGTAATGA to CGCGCCTC, the “PBM E-score” value falls from 0.208 to -0.0504.

Compared with GCCCGACC, AAGGCAAG is higher in “PBM E-score” value: -0.164 for the first, -0.122 for the second.

Going from AGGAAGTC to GCACGTGC, the “PBM E-score” value rises from -0.116 to 0.0341.

Compared with GCTGGAAC, ACACCAAA is higher in “PBM E-score” value: -0.149 for the first, 0.161 for the second.

First: AGGTAACC
Second: CGGATTCC
The “PBM E-score” value of the first is higher: -0.0195 for the first, -0.0288 for the second.

Compared with AAGCACGA, CACGCCAC is lower in “PBM E-score” value: 0.114 for the first, -0.174 for the second.

Compared with CAGAGGTC, GAGGGCGA is lower in “PBM E-score” value: -0.143 for the first, -0.298 for the second.

Going from CTGATTCC to GCATTTAC, the “PBM E-score” value rises from -0.117 to 0.0455.

Compared with AATAGTTG, CCCGATCC is lower in “PBM E-score” value: 0.267 for the first, -0.199 for the second.

Compared with CGTCACGC, AAAACAAA is higher in “PBM E-score” value: -0.0139 for the first, 0.242 for the second.

Going from TGGGTAAA to CCAAACGC, the “PBM E-score” value rises from -0.0431 to 0.0129.

First: ACGTCTCC
Second: GAGAAATC
The “PBM E-score” value of the first is lower: 0.00491 for the first, 0.209 for the second.

Going from GACTCCGA to AATGGGAG, the “PBM E-score” value falls from 0.0169 to -0.0456.

First: ACGTTGTG
Second: CGGCGACA
The “PBM E-score” value of the first is higher: -0.0771 for the first, -0.12 for the second.

First: CTTCAGCA
Second: AAGACTAG
The “PBM E-score” value of the first is higher: -0.0276 for the first, -0.256 for the second.

Compared with GTCTTGAA, AAGCCCGT is lower in “PBM E-score” value: 0.0256 for the first, -0.204 for the second.

Going from GCCGACAA to ATCTTTGA, the “PBM E-score” value rises from -0.0608 to 0.00662.

Compared with GCACAGCC, ACCCGATG is higher in “PBM E-score” value: -0.197 for the first, 0.143 for the second.

Compared with TAAAAACA, ATTCTATC is lower in “PBM E-score” value: 0.246 for the first, 0.0809 for the second.

Compared with AGGACACC, AATAGCAG is higher in “PBM E-score” value: -0.156 for the first, 0.026 for the second.

Going from AATCGGTG to ACCTCGAC, the “PBM E-score” value rises from -0.0385 to -0.0271.

First: CTAGGGTA
Second: GTTCCAAA
The “PBM E-score” value of the first is lower: -0.167 for the first, 0.0925 for the second.

Going from GATCATGC to AATAAACA, the “PBM E-score” value rises from -0.0872 to 0.245.

Going from AGGTGGGA to GGCATATA, the “PBM E-score” value rises from -0.204 to 0.268.

Going from ACCGCTGA to AATTATAT, the “PBM E-score” value rises from 0.0105 to 0.213.

First: AAAGTGGG
Second: CAGCTAGC
The “PBM E-score” value of the first is higher: 0.149 for the first, -0.177 for the second.

Going from CGCGCGAG to AGAACAAA, the “PBM E-score” value rises from 0.0248 to 0.291.

First: GCTCTATA
Second: AGTCCTGA
The “PBM E-score” value of the first is lower: -0.108 for the first, -0.099 for the second.

Compared with TTTAGAAA, CGATCTCC is lower in “PBM E-score” value: 0.16 for the first, -0.125 for the second.

From the supplement of paper PMC3334620
